Assay results published in US20070148663A1.
Results are given in words; binding and its absence hold for the method and conditions named. Binding seen in cells or lysates may run through a third protein. Some results given as binding are weak or reduced against the parent protein; the word gives no strength. Where a sequence is shown, tags or fusion partners need not be part of it.

Chains of the proteins cited; added tags and fusions are not shown. Residues count along the entry.
UniProt P25054, residues 2674-2843: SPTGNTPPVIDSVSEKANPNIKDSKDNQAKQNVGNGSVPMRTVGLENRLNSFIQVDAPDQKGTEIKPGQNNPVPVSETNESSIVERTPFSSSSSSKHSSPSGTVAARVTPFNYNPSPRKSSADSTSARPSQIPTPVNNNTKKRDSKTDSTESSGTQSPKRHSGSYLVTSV

Biological target: GST-APC-C1 (amino acids 2674-2843) (UniProt P25054)
Assay: GST pull-down from COS-7 lysates, anti-GFP western blot

- binding: binds
B1: EB1-C-GFP (wild type; mouse EB1 amino acids 165-268 fused to GFP) (protein, UniProt Q61166 165-268, looked up, not shown: large carriers)
chain: ATQRTTAAPKAGPGMVRKNPGVGNGDDEAAELMQQVKVLKLTVEDLEKERDFYFGKLRNIELICQENEGENDPVLQRIVDILYATDEGFVIPDEGGPQEEQEEY
